From paper PMC3869376 come the findings set out here.

Amino acid sequences for entries named in this document (tags omitted).
UniProt Q13370: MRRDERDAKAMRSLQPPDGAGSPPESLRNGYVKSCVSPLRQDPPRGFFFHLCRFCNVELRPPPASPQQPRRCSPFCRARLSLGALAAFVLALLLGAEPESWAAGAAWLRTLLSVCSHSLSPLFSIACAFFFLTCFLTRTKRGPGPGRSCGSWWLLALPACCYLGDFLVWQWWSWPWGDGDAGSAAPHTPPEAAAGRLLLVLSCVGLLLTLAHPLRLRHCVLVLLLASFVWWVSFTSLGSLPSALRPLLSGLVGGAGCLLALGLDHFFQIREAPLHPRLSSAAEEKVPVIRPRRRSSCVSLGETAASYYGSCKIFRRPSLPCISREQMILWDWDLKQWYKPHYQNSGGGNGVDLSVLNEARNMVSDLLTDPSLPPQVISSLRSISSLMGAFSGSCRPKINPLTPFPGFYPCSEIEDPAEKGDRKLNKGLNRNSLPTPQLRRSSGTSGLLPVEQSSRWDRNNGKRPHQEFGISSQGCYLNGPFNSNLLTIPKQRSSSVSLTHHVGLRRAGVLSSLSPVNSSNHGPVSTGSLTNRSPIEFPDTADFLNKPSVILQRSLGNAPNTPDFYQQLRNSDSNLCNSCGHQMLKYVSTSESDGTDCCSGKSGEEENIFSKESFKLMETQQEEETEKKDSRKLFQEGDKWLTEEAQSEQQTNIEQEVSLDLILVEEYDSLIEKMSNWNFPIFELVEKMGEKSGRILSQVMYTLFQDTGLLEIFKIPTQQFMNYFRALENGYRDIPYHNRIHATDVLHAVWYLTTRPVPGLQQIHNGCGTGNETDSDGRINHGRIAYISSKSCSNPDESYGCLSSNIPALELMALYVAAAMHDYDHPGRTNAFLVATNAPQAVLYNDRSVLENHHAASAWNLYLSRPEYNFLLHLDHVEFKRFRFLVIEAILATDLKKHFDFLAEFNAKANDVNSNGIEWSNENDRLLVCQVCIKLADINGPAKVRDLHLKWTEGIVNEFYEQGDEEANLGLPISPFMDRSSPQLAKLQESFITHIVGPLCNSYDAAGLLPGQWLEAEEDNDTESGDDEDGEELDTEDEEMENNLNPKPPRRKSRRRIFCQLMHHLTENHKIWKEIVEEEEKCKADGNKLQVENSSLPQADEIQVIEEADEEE

These are yes or no findings as the source states them, for the method shown. Binding seen in cells or lysates may run through a third protein. Some entries that bind do so weakly or less than the wild type. Sequences can lack the tags named with a protein.

The assay deals with HA-PDE3B (human), not phosphorylated by active TBK1 (human) (UniProt Q13370). Nature of the assay: co-IP; anti-HA immunoprecipitation from HEK293T cells co-expressing HA-PDE3B with a Flag-tagged kinase or its K38A mutant; immunoblot. A general note: In western blotting, separated proteins are transferred to a membrane and probed.

B1: Flag-TBK1 K38A (kinase-inactive) (enzyme, UniProt Q9UHD2 1-729)
chain: MQSTSNHLWLLSDILGQGATANVFRGRHKKTGDLFAIAVFNNISFLRPVDVQMREFEVLKKLNHKNIVKLFAIEEETTTRHKVLIMEFCPCGSLYTVLEEPSNAYGLPESEFLIVLRDVVGGMNHLRENGIVHRDIKPGNIMRVIGEDGQSVYKLTDFGAARELEDDEQFVSLYGTEEYLHPDMYERAVLRKDHQKKYGATVDLWSIGVTFYHAATGSLPFRPFEGPRRNKEVMYKIITGKPSGAISGVQKAENGPIDWSGDMPVSCSLSRGLQVLLTPVLANILEADQEKCWGFDQFFAETSDILHRMVIHVFSLQQMTAHKIYIHSYNTATIFHELVYKQTKIISSNQELIYEGRRLVLEPGRLAQHFPKTTEENPIFVVSREPLNTIGLIYEKISLPKVHPRYDLDGDASMAKAITGVVCYACRIASTLLLYQELMRKGIRWLIELIKDDYNETVHKKTEVVITLDFCIRNIEKTVKVYEKLMKINLEAAELGEISDIHTKLLRLSSSQGTIETSLQDIDSRLSPGGSLADAWAHQEGTHPKDRNVEKLQVLLNCMTEIYYQFKKDKAERRLAYNEEQIHKFDKQKLYYHATKAMTHFTDECVKKYEAFLNKSEEWIRKMLHLRKQLLSLTNQCFDIEEEVSKYQEYTNELQETLPQKMFTASSGIKHTMTPIYPSSNTLVEMTLGMKKLKEEMEGVVKELAENNHILERFGSLTMDGGLRNVDCL
With B1, the binding result is on record as “binds”.

B2: Flag-TBK1 (wild type) (enzyme, UniProt Q9UHD2 1-729)
chain: MQSTSNHLWLLSDILGQGATANVFRGRHKKTGDLFAIKVFNNISFLRPVDVQMREFEVLKKLNHKNIVKLFAIEEETTTRHKVLIMEFCPCGSLYTVLEEPSNAYGLPESEFLIVLRDVVGGMNHLRENGIVHRDIKPGNIMRVIGEDGQSVYKLTDFGAARELEDDEQFVSLYGTEEYLHPDMYERAVLRKDHQKKYGATVDLWSIGVTFYHAATGSLPFRPFEGPRRNKEVMYKIITGKPSGAISGVQKAENGPIDWSGDMPVSCSLSRGLQVLLTPVLANILEADQEKCWGFDQFFAETSDILHRMVIHVFSLQQMTAHKIYIHSYNTATIFHELVYKQTKIISSNQELIYEGRRLVLEPGRLAQHFPKTTEENPIFVVSREPLNTIGLIYEKISLPKVHPRYDLDGDASMAKAITGVVCYACRIASTLLLYQELMRKGIRWLIELIKDDYNETVHKKTEVVITLDFCIRNIEKTVKVYEKLMKINLEAAELGEISDIHTKLLRLSSSQGTIETSLQDIDSRLSPGGSLADAWAHQEGTHPKDRNVEKLQVLLNCMTEIYYQFKKDKAERRLAYNEEQIHKFDKQKLYYHATKAMTHFTDECVKKYEAFLNKSEEWIRKMLHLRKQLLSLTNQCFDIEEEVSKYQEYTNELQETLPQKMFTASSGIKHTMTPIYPSSNTLVEMTLGMKKLKEEMEGVVKELAENNHILERFGSLTMDGGLRNVDCL
As to B2, the binding entry is recorded as “binds weakly”.
